According to PMC5415106:
No constants are given. Whether binding was seen depends on the method and setting. Binding seen in cells or lysates may run through a third protein.

Chains of the proteins cited; added tags and fusions are not shown.
UniProt P0AGE0: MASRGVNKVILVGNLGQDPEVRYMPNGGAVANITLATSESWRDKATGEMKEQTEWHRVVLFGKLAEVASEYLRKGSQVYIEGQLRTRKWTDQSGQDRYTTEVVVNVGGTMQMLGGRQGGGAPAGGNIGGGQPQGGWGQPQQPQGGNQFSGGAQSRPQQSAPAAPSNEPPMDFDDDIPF

Biological target: E. coli SSB (Single-stranded-DNA binding protein) (E. coli) (UniProt P0AGE0)
Experiment: pull-down; control of the Dpb11-RPA pull-down in which RPA was replaced with E. coli SSB; which protein carried GST is not told

binding: no binding
B1: PKA-Dpb11 (radiolabeled Dpb11) (protein, UniProt P47027 1-764)
chain: MKPFQGITFCPTAINNEILAKKISKKIIKLGGIFSKDLTRQVNVLVVGSTTNTNKFKFAVKHRFDIIFIDIQAIDDIYQLWLSGENILPDSNTATMTGSTYEMLKILYRRFSFKYLHNFNIFIGRITDTNITSIDSLVRSIKKLGCSSYNYQNFVIKDTSSHNDDDDQGQNGQISIFVTDTLLGARVNAAIEQNIPIVHFKWILDCQKRSALLPYDPYYLLPNIKDLPYDSIGSNSCDCWDKINTTFPTNIDAQSSLQRQQSSSTLTPSLPKTSSLLNKFKPKGEKIWDKAMSLQQHSKTNFSVLGQSPLSINNKQEDLSDNSTLIFKNCAFIIHHIFPGNHRSILTKIVVQNGGKIETSYLSGIYDHSYYIIPSNKALDSFNDLPEIIDDNDGIVTEFFIERCLYYQKLLHPIDLWSKPFLSTIEFQVSSSSKLLHHEFSSSPFLNVTITGFSGVELLHLTKVLNLLKPMGINYVEYLNKSTDILLINLAALPSIPKTHPLWSNEFSDLFTQFCINNNNDDPGDNNRKDFQNNSILRNSMKRKIEYIKKFHSIPVVTPAFIFKLLSAASGENNEIFLNNIKWCIICPRGHKDDFKCKIKKPYYTSISSEKKYQNNDPKIDKTILLKRNNSSLSEHSMKDTKNELLQKIRETDSGRKKRSVSSSIMDVSSERQMPDTKRIKLESLPKNFVPKQIKRTTSWGTIMSENVPTEQPTAISNPEEIPRTEEVSHTQVTYGSIQDKKRTASLEKPMRRQTRNQTKELDS
modifications: 32P-phosphate on the PKA tag
